System: ovalbumin-induced bronchoconstriction
Test: Pulmonary, Histamine H3 (ovalbumin-induced bronchoconstriction)
Type: in vivo, guinea pig
Details: N=3, Peptide PO 10 mg/kg, R-α-methylhistamine IV 30 mg/kg
Experimental: For in vivo assay, distilled water and saline was used as vehicle in oral and intraperitoneal administration, respectively. Dosing volume was 20 ml/kg for mice or 10 ml/kg for rats.
A group of Duncan Hartley derived male or female guinea pigs weighing 250±50 gms were anesthetized with pentobarbital sodium (50 mg/kg IP plus an additional 15 mg/kg IP if required) and succinylcholine chloride (2 mg/animal IP) was subsequently administered to prevent spontaneous respiration. Body temperature was maintained at 37° to 38° C. The trachea was cannulated and the guinea pig ventilated with a Harvard rodent respirator in a closed system. Tracheal pressure (TP) was recorded through a side-arm of the cannula connected to a P23ID Statham transducer. Respiratory rate set at 50 strokes/minute with a stroke volume (approximately 1 ml/100 g) sufficient to produce a baseline tracheal pressure of 6 cm H2O. Mean arterial pressure was monitored from a cannulated carotid artery, and heart rate was obtained from chest electrodes arranged for lead II. The jugular vein was cannulated for IV vehicle or drug administration in a volume of 1 ml/kg. Guinea pigs were sensitized with IP injections of ovalbumin 0.5 μg+Al(OH)3 1 mg (0.5 ml/animal) on days 1, and boosted with same dosage of ovalbumin and Al(OH)3 vaccine on day 8; and the animals were ready to be challenged between days 19 and 23 to get a submaximal ovalbumin (50 μg/kg IV)-induced bronchoconstriction, reflected as an increase in tracheal pressure (cm H2O). […]. Test substances were administered PO (10 mg/kg) at 60 minutes before ovalbumin (50 μg/kg IV) challenge in 3 guinea pigs. Tracheal pressure, blood pressure and heart rate were measured immediately before and after ovalbumin challenge.

C[C@@H](N)Cc1c[nH]cn1 [R (α)-Methylhistamine, R-α-Methyl histamine]
Blood Pressure Post-challenge (after ovalbumin challenge): 34.0 ± 4.2 mmHg
Heart Rate Post-challenge (after ovalbumin challenge): 216 ± 0.0 beats/min
Blood Pressure Pre-challenge (before ovalbumin challenge): 55.3 ± 1.3 mmHg
Heart Rate Pre-challenge (before ovalbumin challenge): 232 ± 4.0 beats/min

From patent US6767890B1, “Peptides having anti-cancer and anti-inflammatory activity” (priority 1998, dated 2004)
